In PubChem BioAssay AID445 (National Center for Advancing Translational Sciences (NCATS), 2006):
Some of the results follow. Further columns of the screen follow, without active or inactive calls. Most of these compounds were active or inconclusive in the main read-out, so they are no random draw. Words in brackets tell the shape of the fitted curve; partial curves, single points and poor fits give uncertain potencies.

Experiment: IkB Signaling
Conditions: ABC-DLBCL IkBa-CBG/CBR dual luciferase ratio (green luciferase fused to IkBa over red control in OCI-Ly3 lymphoma cells), 4 h
In short: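 Curves were fitted separately to fusion (green), unfused (red) and ratio luminescence, then classed by r2, magnitude and activity. Cells: OCI-Ly3, 4 h compound plus doxycycline at 37C; 10 uM MG-132 defined full response.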

[1] = measured here: control luc red channel unless noted
[2] = measured here: IkB-luc green channel
[3] = measured here: control luc red channel

COc1ccccc1CNc1ncnc2ccc(-c3c(C)noc3C)cc12
AC50 [1]: 631 nM [rising, full curve] [measured here: IkB-luc green channel]

COC(=O)c1ccccc1S(=O)(=O)N1CCC(c2nc3ccccc3o2)CC1
AC50 [1]: 10 µM [falling, partial curve]

COc1ccc2nc(Nc3nc(C)c(C(C)=O)s3)sc2c1
AC50 [2]: 3.98 µM [rising, single point]
AC50 [3]: 39.8 µM [falling, single point]

O=C(c1ccc2c(c1)N(Cc1ccccc1F)C(=O)c1ccccc1S2(=O)=O)N1CCCCCC1
AC50 [1]: 3.16 µM [falling, single point]

C[C@@H]1CN(CCCn2c3ccccc3c3ccccc32)C[C@H](C)N1
AC50 [1]: 50.1 µM [falling, partial curve, poor fit]

Cc1cc(N2CCCCC2)nc2ccc(NC(=O)CCC(=O)N3CCN(c4cccc(Cl)c4)CC3)cc12
AC50 [1]: 15.8 µM [falling, partial curve]

CS(=O)(=O)c1nc(-c2ccco2)cc(C(F)(F)F)n1
AC50 [2]: 6.31 µM [rising, single point]
AC50 [3]: 10 µM [falling, partial curve]

CCOc1ccc(CCNC(=O)c2ccc3[nH]c(C)c(C)c3c2)cc1
AC50 [1]: 31.6 µM [falling, partial curve, poor fit]

Cc1ccc2scc(N3CCN(c4ccccc4)CC3)c(=O)c2c1
AC50 [1]: 39.8 µM [falling, single point]

CCCN1C(=O)C(O)(C/C(C)=N/O)c2ccccc21 (centres undefined)
AC50 [1]: 200 nM [rising, full curve] [measured here: IkB-luc green channel]

O=C(C1COc2ccccc2O1)N(Cc1cccnc1)c1nc2ccc(F)cc2s1 (centres undefined)
AC50 [1]: 39.8 µM [falling, single point]

Fc1ccccc1CSc1nnc(-c2cccs2)o1
AC50 [1]: 1.26 µM [rising, partial curve]

N#CC1=C(SCC(=O)Nc2cccc3cccnc23)NC(=O)C(C#N)C12CCCCC2 (centres undefined)
AC50 [1]: 15.8 µM [falling, partial curve]

Cc1ccc(-c2nnc(N3CCN(C(=O)c4ccco4)CC3)c3ccccc23)cc1
AC50 [1]: 15.8 µM [falling, partial curve]

CCCCC(=O)NC1(C(F)(F)F)C(=O)Nc2c1c(=O)[nH]c(=O)n2-c1ccc(F)cc1 (centres undefined)
AC50 [1]: 3.16 µM [falling, partial curve]

CCC1CCCCN1C(=O)Cn1c(=O)n(-c2ccccc2C(F)(F)F)c(=O)c2c(C)c(C(=O)N(C)C)sc21 (centres undefined)
AC50 [1]: 12.6 µM [falling, partial curve, poor fit]

CCOc1ccc(NC(=O)C(CC)n2nc(-c3ccc(C)c(C)c3)ccc2=O)cc1 (centres undefined)
AC50 [1]: 39.8 µM [falling, partial curve]

Cc1ccc(-c2cc(C(=O)NCC3CCCO3)no2)cc1 (centres undefined)
AC50 [1]: 12.6 µM [falling, partial curve]

COc1ccccc1N1CCN(C(c2ccccc2)c2nnc(-c3ccccc3Cl)o2)CC1 (centres undefined)
AC50 [1]: 12.6 µM [falling, partial curve, poor fit]

Cc1ccc(NC(=O)Cn2c(=O)n(Cc3nc(-c4ccccc4)no3)c(=O)c3cc4c(cc32)OCO4)cc1C
AC50 [1]: 12.6 µM [falling, partial curve]

COc1ccc(NC(=O)c2sc3nc[nH]c(=O)c3c2C)cc1
AC50 [1]: 1 µM [rising, single point]

Cc1cc(C)cc(OCC(=O)Nc2ccccc2C(=O)NCc2ccco2)c1
AC50 [1]: 10 µM [falling, partial curve]

Cc1cc(N2CCN(C(=O)c3ccco3)CC2)n2ncc(-c3ccccc3)c2n1
AC50 [1]: 20 µM [falling, partial curve]

O=C1CC(c2ccccc2)Cc2[nH]c(=O)c(-c3nc(-c4ccc(F)cc4)cs3)cc21 (centres undefined)
AC50 [2]: 3.98 µM [rising, full curve, poor fit]
AC50 [3]: 7.94 µM [falling, partial curve]

O=C(CN1C(=O)COc2ccc(S(=O)(=O)N3CCCC3)cc21)N1CCN(c2ccccc2F)CC1
AC50 [1]: 3.98 µM [falling, partial curve, poor fit]

C=CCn1c(SCC(=O)NCCOC)nc2scc(-c3ccco3)c2c1=O
AC50 [1]: 1.26 µM [falling, partial curve]

COc1ccc(-c2noc(-c3ccc(N4CCCCC4)c([N+](=O)[O-])c3)n2)cc1
AC50 [1]: 1.26 µM [falling, full curve]

Cc1ccc(-c2nc(Nc3ccccc3)n[nH]2)cc1
AC50 [1]: 3.16 µM [falling, partial curve]

CCc1ccc2oc(-c3cc(N)ccc3Cl)nc2c1
AC50 [1]: 3.98 µM [falling, partial curve]

COc1ccccc1-c1cn[nH]c(=S)n1
AC50 [1]: 12.6 µM [falling, partial curve]

CC(=O)Nc1ccc(S(=O)(=O)N2CCSC2c2ccc(Cl)cc2)cc1 (centres undefined)
AC50 [1]: 12.6 µM [falling, partial curve]

Cc1csc2nc(COc3ccc(NC(=O)COc4ccc(F)cc4)cc3)cc(=O)n12
AC50 [1]: 0.0794 µM [rising, full curve]

Cc1ccc(NC(=O)Cn2cc(S(=O)(=O)N3CCN(c4ccccc4F)CC3)c3ccccc3c2=O)cc1F
AC50 [1]: 5.01 µM [falling, partial curve]

CCOc1ccc(/C=C/c2nc(C#N)c(N(C)C)o2)cc1
AC50 [1]: 1.58 µM [rising, full curve, poor fit]

Cn1c(C(=O)N2CCC(C(=O)N3CCN(Cc4ccc5c(c4)OCO5)CC3)CC2)cc2sccc21
AC50 [1]: 12.6 µM [falling, partial curve]

CCOc1ccccc1CNC(=O)c1nn(C)c2c1CS(=O)(=O)c1ccccc1-2
AC50 [1]: 10 µM [falling, partial curve]

CC(C)c1ccc(CNc2nc(-c3ccco3)nn2S(=O)(=O)c2ccccc2)cc1
AC50 [1]: 10 µM [falling, partial curve]

COc1ccc([N+](=O)[O-])c2c1CCN2C(=O)CC[C@H](N)C(=O)O
AC50 [1]: 7.94 µM [rising, partial curve]

COc1ccc(CCNc2nnc(Sc3nnnn3-c3ccccc3)s2)cc1OC
AC50 [1]: 12.6 µM [falling, partial curve]

N#C/C(=C\c1ccc(O)c(O)c1)C(=O)Nc1ccccc1
AC50 [1]: 31.6 µM [falling, partial curve]

Cc1cccc(Cc2c(C)nc3c(C(=O)NCc4ccco4)cnn3c2C)c1
AC50 [1]: 15.8 µM [falling, partial curve]

Cc1ccc(-c2nnc(SCC(=O)NCCC(C)C)nc2-c2ccc(C)cc2)cc1
AC50 [1]: 39.8 µM [falling, single point]

Cc1cc(NC(=O)C2CCCN(S(=O)(=O)c3ccc(Br)s3)C2)ccc1Br (centres undefined)
AC50 [1]: 10 µM [falling, partial curve]

Cc1cc2nn(-c3ccc(F)cc3)nc2cc1NC(=O)c1cc(Cl)ccc1Cl
AC50 [1]: 20 µM [rising, partial curve, poor fit]

O=C(Nc1ccc2c(c1)nc1n2CCOC1)c1ccccc1
AC50 [1]: 2.51 µM [falling, full curve]

O=C(c1ccc(COc2ccccc2Br)o1)N1CCCCCC1
AC50 [1]: 15.8 µM [falling, partial curve]

O=C1NC(=O)C(c2ccccc2[N+](=O)[O-])=C1Nc1ccc(O)c(Cl)c1
AC50 [2]: 20 µM [falling, partial curve]
AC50 [3]: 39.8 µM [falling, single point]

COc1ccc(-n2ncc(C(=O)Nc3ccc(C)cc3Cl)c2C2CCN(C(=O)OC(C)(C)C)CC2)cc1
AC50 [1]: 31.6 µM [falling, partial curve]

Cn1c(=O)n(C)c2cc(NS(=O)(=O)c3ccc4c(c3)CCCC4)ccc21
AC50 [1]: 10 µM [rising, partial curve] [measured here: IkB-luc green channel]

O=S(=O)(NCCc1csc(-c2ccc(F)cc2)n1)c1ccc(F)cc1F
AC50 [1]: 1.26 µM [falling, full curve, poor fit]

Cc1oc(-c2ccccc2)nc1C(=O)OCC(=O)NC(=O)NCC(C)C
AC50 [1]: 10 µM [falling, partial curve]

O=C(Nc1ccc(F)cc1)c1ccc(-n2cnnc2)cc1
AC50 [1]: 0.126 µM [rising, full curve]

C=CCNC(=O)NC(=O)COC(=O)CCCSc1nc2ccccc2[nH]1
AC50 [1]: 5.01 µM [falling, partial curve]

Cc1ccc(-c2noc(CN(C(=O)CCCN3C(=O)c4ccccc4C3=O)C(C)C)n2)cc1
AC50 [1]: 12.6 µM [falling, partial curve]

COC(=O)c1ccc(NC(=O)CSc2ccc(-c3cccs3)nn2)cc1
AC50 [1]: 0.158 µM [falling, single point]

NS(=O)(=O)c1ccc(CCNc2ncnc3sccc23)cc1
AC50 [1]: 12.6 µM [falling, partial curve]

O=C(NCCc1nc2ccccc2n1CCOc1ccc(Cl)cc1)C1CCCCC1
AC50 [1]: 25.1 µM [falling, partial curve]

COc1ccccc1NC(=O)CN1CCN(CC(=O)Nc2ccc(OCc3ccccc3)cc2)CC1
AC50 [1]: 2.51 µM [falling, partial curve]

O=C(Nc1ccc(NC(=O)c2ccco2)nc1)c1cccnc1
AC50 [1]: 15.8 µM [falling, partial curve]

CCc1ccc(NC(=O)C(Cc2ccccc2)NS(=O)(=O)c2ccc3c(c2)CCN3C(C)=O)cc1 (centres undefined)
AC50 [1]: 15.8 µM [falling, partial curve]
